Test results as given in article PMC8270967.
No constants are given. Whether binding was seen depends on the method and setting. In cells and extracts the contact can be indirect. Binding can be weak; no strength is given.

By UniProt entry, the sequences of proteins in these tests, tags left out. Where a name states a change or a piece, a line headed by the entry shows the natural chain unless it says otherwise.
UniProt Q9BY44: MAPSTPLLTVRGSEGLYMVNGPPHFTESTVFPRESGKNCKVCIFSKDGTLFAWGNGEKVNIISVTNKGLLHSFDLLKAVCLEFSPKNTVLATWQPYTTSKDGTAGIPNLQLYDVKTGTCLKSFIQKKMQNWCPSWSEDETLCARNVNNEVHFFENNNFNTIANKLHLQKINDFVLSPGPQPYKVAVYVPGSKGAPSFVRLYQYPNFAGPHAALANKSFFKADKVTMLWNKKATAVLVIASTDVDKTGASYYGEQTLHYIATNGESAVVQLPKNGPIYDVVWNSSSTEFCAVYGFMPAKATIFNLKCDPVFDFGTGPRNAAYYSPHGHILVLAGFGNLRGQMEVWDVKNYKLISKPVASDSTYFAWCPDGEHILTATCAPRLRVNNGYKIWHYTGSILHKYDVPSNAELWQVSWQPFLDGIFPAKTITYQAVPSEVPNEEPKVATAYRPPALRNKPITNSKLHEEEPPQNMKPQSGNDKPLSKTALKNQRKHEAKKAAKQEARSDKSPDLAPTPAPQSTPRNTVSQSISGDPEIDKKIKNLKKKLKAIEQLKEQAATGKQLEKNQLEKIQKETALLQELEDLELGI

How the values were obtained:
[1] = molecular target: T1, WD repeat domain 4 (WDR4), endogenous (human (endogenous in HCC cells)) (UniProt P57081); assay: co-IP; endogenous co-IP; performed as in ref. 33; which protein was precipitated is not told
T1 sequence: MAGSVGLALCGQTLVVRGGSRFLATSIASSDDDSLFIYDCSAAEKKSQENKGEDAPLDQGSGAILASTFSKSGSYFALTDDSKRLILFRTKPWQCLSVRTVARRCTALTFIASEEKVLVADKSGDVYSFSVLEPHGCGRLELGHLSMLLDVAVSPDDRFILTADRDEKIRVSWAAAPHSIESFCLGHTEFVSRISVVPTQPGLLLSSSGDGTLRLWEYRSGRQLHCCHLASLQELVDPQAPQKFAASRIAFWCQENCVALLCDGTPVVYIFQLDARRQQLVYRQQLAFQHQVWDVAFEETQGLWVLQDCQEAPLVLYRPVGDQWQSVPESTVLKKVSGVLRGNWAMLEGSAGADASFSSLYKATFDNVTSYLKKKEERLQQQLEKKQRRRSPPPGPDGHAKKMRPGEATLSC

[2] = molecular target: T2, WDR4, exogenous (transfected) (UniProt P57081); assay: co-IP; exogenous co-IP; performed as in ref. 33; which protein was precipitated is not told
T2 sequence: T1 sequence

binding [1] | binding [2] | Substance
binds |  | EIF2A, endogenous (from UniProt Q9BY44)
 | binds | EIF2A, exogenous (transfected) (from UniProt Q9BY44)
